From patent US20230183336A1 (MODMAB THERAPEUTICS, published 2023)
Results are given in words; binding and its absence hold for the method and conditions named. Binding calls can cover weak binding; strength is not graded here.

B1: LRP5-A7 (antibody, V domains shown)
VH: EVQLVESGGGLVQPGGSLRLSCAASGFNLSYSSMHWVRQAPGKGLEWVASIYPYYGYTYYADSVKGRFTISADTSKNTAYLQMNSLRAEDTAVYYCARHGAMDYWGQGTLVTVSS
VL: DIQMTQSPSSLSASVGDRVTITCRASQSVSSAVAWYQQKPGKAPKLLIYSASSLYSGVPSRFSGSRSGTDFTLTISSLQPEDFATYYCQQAWGWGLFTFGQGTKVEIKR
notes: Fab-phage in the screen; also called LRP5-47
B2: LRP5-G11 (antibody, V domains shown)
VH: EVQLVESGGGLVQPGGSLRLSCAASGFNISYSYIHWVRQAPGKGLEWVASIYPSYGYTYYADSVKGRFTISADTSKNTAYLQMNSLRAEDTAVYYCARAAPYYGYYYSYAMDYWGQGTLVTVSS
VL: DIQMTQSPSSLSASVGDRVTITCRASQSVSSAVAWYQQKPGKAPKLLIYSASSLYSGVPSRFSGSRSGTDFTLTISSLQPEDFATYYCQQGVSLITFGQGTKVEIKR
notes: Fab-phage in the screen
B3: LRP5-H3 (antibody, V domains shown)
VH: EVQLVESGGGLVQPGGSLRLSCAASGFNLYYYYIHWVRQAPGKGLEWVASISPYYGYTSYADSVKGRFTISADTSKNTAYLQMNSLRAEDTAVYYCARSGYGWYAMDYWGQGTLVTVSS
VL: DIQMTQSPSSLSASVGDRVTITCRASQSVSSAVAWYQQKPGKAPKLLIYSASSLYSGVPSRFSGSRSGTDFTLTISSLQPEDFATYYCQQYWFLITFGQGTKVEIKR
notes: Fab-phage in the screen
B4: LRP5-H5 (antibody, V domains shown)
VH: EVQLVESGGGLVQPGGSLRLSCAASGFNLSYSSIHWVRQAPGKGLEWVASISSSYGSTSYADSVKGRFTISADTSKNTAYLQMNSLRAEDTAVYYCARGYWAIDYWGQGTLVTVSS
VL: DIQMTQSPSSLSASVGDRVTITCRASQSVSSAVAWYQQKPGKAPKLLIYSASSLYSGVPSRFSGSRSGTDFTLTISSLQPEDFATYYCQQPVGHYGYPITFGQGTKVEIKR
notes: Fab-phage in the screen
B5: LRP5-H9 (antibody, V domains shown)
VH: EVQLVESGGGLVQPGGSLRLSCAASGFNIYSYYIHWVRQAPGKGLEWVASIYSYYGYTYYADSVKGRFTISADTSKNTAYLQMNSLRAEDTAVYYCARSYPAMDYWGQGTLVTVSS
VL: DIQMTQSPSSLSASVGDRVTITCRASQSVSSAVAWYQQKPGKAPKLLIYSASSLYSGVPSRFSGSRSGTDFTLTISSLQPEDFATYYCQQSSYSPITFGQGTKVEIKR
notes: Fab-phage in the screen
B6: LRP5-R3_E8 (antibody, V domains shown)
VH: EVQLVESGGGLVQPGGSLRLSCAASGFNLYYSSMHWVRQAPGKGLEWVASISSYYGYTSYADSVKGRFTISADTSKNTAYLQMNSLRAEDTAVYYCARYWALDYWGQGTLVTVSS
VL: DIQMTQSPSSLSASVGDRVTITCRASQSVSSAVAWYQQKPGKAPKLLIYSASSLYSGVPSRFSGSRSGTDFTLTISSLQPEDFATYYCQQVSYYPLITFGQGTKVEIKR
B7: LRP5-R3O_G6 (antibody, V domains shown)
VH: EVQLVESGGGLVQPGGSLRLSCAASGFNISSYSMHWVRQAPGKGLEWVAYISPYYGYTSYADSVKGRFTISADTSKNTAYLQMNSLRAEDTAVYYCARGWGSPASAGYYGLDYWGQGTLVTVSS
VL: DIQMTQSPSSLSASVGDRVTITCRASQSVSSAVAWYQQKPGKAPKLLIYSASSLYSGVPSRFSGSRSGTDFTLTISSLQPEDFATYYCQQSSYSLITFGQGTKVEIKR
B8: LRP5-A9 (antibody, V domains shown)
VH: EVQLVESGGGLVQPGGSLRLSCAASGFNISSYSIHWVRQAPGKGLEWVASSSYYGYTYYADSVKGRFTISADTSKNTAYLQMNSLRAEDTAVYYCARTVRGSKKPYFSGWAMDYWGQGTLVTVSS
VL: DIQMTQSPSSLSASVGDRVTITCRASQSVSSAVAWYQQKPGKAPKLLIYSASSLYSGVPSRFSGSRSGTDFTLTISSLQPEDFATYYCQQVHYSPYSLITFGQGTKVEIKR
notes: Fab-phage in the screen
B9: LRP5-C5 (antibody, V domains shown)
VH: EVQLVESGGGLVQPGGSLRLSCAASGFNFSSSSIHWVRQAPGKGLEWVASISSSYGYTYYADSVKGRFTISADTSKNTAYLQMNSLRAEDTAVYYCARSSYYSSVSSSVYALDYWGQGTLVTVSS
VL: DIQMTQSPSSLSASVGDRVTITCRASQSVSSAVAWYQQKPGKAPKLLIYSASSLYSGVPSRFSGSRSGTDFTLTISSLQPEDFATYYCQQYQYSGLITFGQGTKVEIKR
B10: LRP5-C12 (antibody, V domains shown)
VH: EVQLVESGGGLVQPGGSLRLSCAASGFNFSSSSIHWVRQAPGKGLEWVASIYSSYGSTSYADSVKGRFTISADTSKNTAYLQMNSLRAEDTAVYYCARTVRGSKKPYFSGWAMDYWGQGTLVTVSS
VL: DIQMTQSPSSLSASVGDRVTITCRASQSVSSAVAWYQQKPGKAPKLLIYSASSLYSGVPSRFSGSRSGTDFTLTISSLQPEDFATYYCQQFSHVSLITFGQGTKVEIKR
notes: Fab-phage in the screen
B11: LRP5-D9 (antibody, V domains shown)
VH: EVQLVESGGGLVQPGGSLRLSCAASGFNISYSYIHWVRQAPGKGLEWVASIYSSYGYTYYADSVKGRFTISADTSKNTAYLQMNSLRAEDTAVYYCARHYSYFFYAMDYWGQGTLVTVSS
VL: DIQMTQSPSSLSASVGDRVTITCRASQSVSSAVAWYQQKPGKAPKLLIYSASSLYSGVPSRFSGSRSGTDFTLTISSLQPEDFATYYCQQASYSPITFGQGTKVEIKR
notes: Fab-phage in the screen
B12: LRP5-E5 (antibody, V domains shown)
VH: EVQLVESGGGLVQPGGSLRLSCAASGFNIYSYSIHWVRQAPGKGLEWVASIYPYSSYTSYADSVKGRFTISADTSKNTAYLQMNSLRAEDTAVYYCARYAVYFPGYYWGMDYWGQGTLVTVSS
VL: DIQMTQSPSSLSASVGDRVTITCRASQSVSSAVAWYQQKPGKAPKLLIYSASSLYSGVPSRFSGSRSGTDFTLTISSLQPEDFATYYCQQYHYYYLFTFGQGTKVEIKR
notes: Fab-phage in the screen
B13: LRP5-G2 (antibody, V domains shown)
VH: EVQLVESGGGLVQPGGSLRLSCAASGFNLSYYYMHWVRQAPGKGLEWVASIYSSYGYTYYADSVKGRFTISADTSKNTAYLQMNSLRAEDTAVYYCARWSHVSGHYSGMDYWGQGTLVTVSS
VL: DIQMTQSPSSLSASVGDRVTITCRASQSVSSAVAWYQQKPGKAPKLLIYSASSLYSGVPSRFSGSRSGTDFTLTISSLQPEDFATYYCQQASYAPITFGQGTKVEIKR
B14: LRP5-G9 (antibody, V domains shown)
VH: EVQLVESGGGLVQPGGSLRLSCAASGFNISYSYIHWVRQAPGKGLEWVASIYSSYGYTYYADSVKGRFTISADTSKNTAYLQMNSLRAEDTAVYYCARWGAYHSSGYGMDYWGQGTLVTVSS
VL: DIQMTQSPSSLSASVGDRVTITCRASQSVSSAVAWYQQKPGKAPKLLIYSASSLYSGVPSRFSGSRSGTDFTLTISSLQPEDFATYYCQQSSSSPITFGQGTKVEIKR
notes: Fab-phage in the screen
B15: LRP5-G10 (antibody, V domains shown)
VH: EVQLVESGGGLVQPGGSLRLSCAASGFNFSSSSIHWVRQAPGKGLEWVASISSSYGYTYYADSVKGRFTISADTSKNTAYLQMNSLRAEDTAVYYCARGGSGVSHYGSVYYSWWALDYWGQGTLVTVSS
VL: DIQMTQSPSSLSASVGDRVTITCRASQSVSSAVAWYQQKPGKAPKLLIYSASSLYSGVPSRFSGSRSGTDFTLTISSLQPEDFATYYCQQSSYSLITFGQGTKVEIKR

biological target: recombinant LRP5 ECD; test: Fab-phage ELISA on immobilized recombinant LRP5 ECD

| Binder | binding |
| --- | --- |
| B1 | binds |
| B2 | binds |
| B3 | binds |
| B4 | binds |
| B5 | binds |
| B6 | binds |
| B7 | binds |
| B8 | binds |
| B9 | binds |
| B10 | binds |
| B11 | binds |
| B12 | binds |
| B13 | binds |
| B14 | binds |
| B15 | binds |
